{"source": "PubChem BioAssay AID1224829 (NIAID, 2016)", "purpose": "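Secondary check of hits that alter LPS-induced p65 translocation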 (follow-up of hits)", "cell system": "mouse RAW264.7 G9 macrophage reporter cells", "knock-down reagent": "single siRNA against mouse genes, 100 nM", "time to read-out": "2 days of siRNA knock-down, then 40 min of LPS before fixing", "treatment": "LPS (Salmonella minnesota R595) at 10 ng/ml", "measurement": "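High-content images after 40 min LPS exposure; GFP-p65 nucleus to surrounding ring signal ratio, normalised to plate median and non-targeting control wells, expressed as z-score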", "reading the numbers": "p65 translocation z-score: higher = more nuclear NF-kappaB p65 after LPS", "hit rule": "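Active means the replicate-mean z-score lies beyond plus or minus 2, in either direction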", "meaning of the calls": "active = changed p65 translocation (either direction); inactive = no clear change", "note": "The whole screen tested about 3,800 reagents; below is an unselected part. 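Calls cover raised and lowered translocation; gene median uses one vendor's three siRNAs; qiagen siRNAs acted more weakly than ambion siRNAs.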 Unmarked entries are inactive. The numbers tell different reagents against one gene apart. Further read-outs or replicates are left out here."}
{"gene knocked down": "Syngr1 (synaptogyrin 1)", "reagent": 1, "siRNA vendor or control pool": "ambion single siRNA", "p65 translocation z-score, replicate mean": "-3.1 (active)"}
{"gene knocked down": "Syngr1 (synaptogyrin 1)", "reagent": 2, "siRNA vendor or control pool": "ambion single siRNA", "p65 translocation z-score, replicate mean": -0.402}
{"gene knocked down": "Syngr1 (synaptogyrin 1)", "reagent": 3, "siRNA vendor or control pool": "ambion single siRNA", "p65 translocation z-score, replicate mean": 1.2}
{"gene knocked down": "Syngr1 (synaptogyrin 1)", "reagent": 4, "siRNA vendor or control pool": "qiagen single siRNA", "p65 translocation z-score, replicate mean": 1.87}
{"gene knocked down": "Syngr1 (synaptogyrin 1)", "reagent": 5, "siRNA vendor or control pool": "qiagen single siRNA", "p65 translocation z-score, replicate mean": 0.567}
{"gene knocked down": "Syngr1 (synaptogyrin 1)", "reagent": 6, "siRNA vendor or control pool": "qiagen single siRNA", "p65 translocation z-score, replicate mean": -0.75}

Laid out differently: entries from further up.
Syngr1 (synaptogyrin 1) #1, siRNA vendor or control pool ambion single siRNA | p65 translocation z-score, replicate mean: -3.1 (active)
Syngr1 (synaptogyrin 1) #2, siRNA vendor or control pool ambion single siRNA | p65 translocation z-score, replicate mean: -0.402

The results go on.
{"gene knocked down": "Ica1l (islet cell autoantigen 1-like)", "reagent": 1, "siRNA vendor or control pool": "ambion single siRNA", "p65 translocation z-score, replicate mean": 1.72}
{"gene knocked down": "Ica1l (islet cell autoantigen 1-like)", "reagent": 2, "siRNA vendor or control pool": "ambion single siRNA", "p65 translocation z-score, replicate mean": 0.7}
{"gene knocked down": "Ica1l (islet cell autoantigen 1-like)", "reagent": 3, "siRNA vendor or control pool": "ambion single siRNA", "p65 translocation z-score, replicate mean": "-2.19 (active)"}
{"gene knocked down": "Ica1l (islet cell autoantigen 1-like)", "reagent": 4, "siRNA vendor or control pool": "qiagen single siRNA", "p65 translocation z-score, replicate mean": "2.08 (active)"}
{"gene knocked down": "Ica1l (islet cell autoantigen 1-like)", "reagent": 5, "siRNA vendor or control pool": "qiagen single siRNA", "p65 translocation z-score, replicate mean": -0.583}
{"gene knocked down": "Ica1l (islet cell autoantigen 1-like)", "reagent": 6, "siRNA vendor or control pool": "qiagen single siRNA", "p65 translocation z-score, replicate mean": 0.123}
